According to PMC12152124:
Results are given in words; binding and its absence hold for the method and conditions named. In cells and extracts the contact can be indirect. A yes stands for co-enrichment or nearness to the bait. Other partners may have been found. Sequences can lack the tags named with a protein.

By UniProt entry, the sequences of proteins in these tests, tags left out.
UniProt P16892: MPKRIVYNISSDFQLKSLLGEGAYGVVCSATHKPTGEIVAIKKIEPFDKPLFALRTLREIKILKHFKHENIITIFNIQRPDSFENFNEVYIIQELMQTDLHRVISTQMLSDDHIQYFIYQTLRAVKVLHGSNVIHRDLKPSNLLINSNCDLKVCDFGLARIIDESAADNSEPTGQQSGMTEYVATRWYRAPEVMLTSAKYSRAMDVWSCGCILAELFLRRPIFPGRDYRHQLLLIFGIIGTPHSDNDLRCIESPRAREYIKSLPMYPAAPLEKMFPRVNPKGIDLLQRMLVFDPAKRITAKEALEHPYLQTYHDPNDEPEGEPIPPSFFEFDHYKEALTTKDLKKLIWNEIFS

T1: Tda1-3HA (C-terminally 3xHA-tagged Tda1) (S. cerevisiae) (UniProt Q03533)
T1 sequence: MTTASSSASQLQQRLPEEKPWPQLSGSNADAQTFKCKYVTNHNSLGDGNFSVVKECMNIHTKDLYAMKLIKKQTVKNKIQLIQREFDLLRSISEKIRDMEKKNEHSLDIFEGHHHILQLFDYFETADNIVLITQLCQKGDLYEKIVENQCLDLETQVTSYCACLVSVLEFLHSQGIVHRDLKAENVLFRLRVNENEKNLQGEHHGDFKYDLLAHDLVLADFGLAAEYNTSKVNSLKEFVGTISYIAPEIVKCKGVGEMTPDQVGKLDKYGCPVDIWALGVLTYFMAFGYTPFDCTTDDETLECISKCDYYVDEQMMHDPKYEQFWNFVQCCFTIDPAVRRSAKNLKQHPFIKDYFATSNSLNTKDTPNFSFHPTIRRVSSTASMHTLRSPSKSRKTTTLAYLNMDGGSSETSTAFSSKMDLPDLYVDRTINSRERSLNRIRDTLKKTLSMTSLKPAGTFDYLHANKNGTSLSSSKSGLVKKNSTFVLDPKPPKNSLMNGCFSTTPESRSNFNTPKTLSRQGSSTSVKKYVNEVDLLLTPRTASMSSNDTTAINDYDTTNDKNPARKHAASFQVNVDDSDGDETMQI

B1: Rim11 (enzyme, UniProt P38615 1-370)
chain: MNIQSNNSPNLSNNIVSKQVYYAHPPPTIDPNDPVQISFPTTEVVGHGSFGVVFATVIQETNEKVAIKKVLQDKRFKNRELEIMKMLSHINIIDLKYFFYERDSQDEIYLNLILEYMPQSLYQRLRHFVHQRTPMSRLEIKYYMFQLFKSLNYLHHFANVCHRDIKPQNLLVDPETWSLKLCDFGSAKQLKPTEPNVSYICSRYYRAPELIFGATNYTNQIDIWSSGCVMAELLLGQPMFPGESGIDQLVEIIKILGTPSKQEICSMNPNYMEHKFPQIKPIPLSRVFKKEDDQTVEFLADVLKYDPLERFNALQCLCSPYFDELKLDDGKINQITTDLKLLEFDENVELGHLSPDELSSVKKKLYPKSK
B2: Mck1 (enzyme, UniProt P21965 1-375)
chain: MSTEEQNGVPLQRGSEFIADDVTSNKSNNTRRMLVKEYRKIGRGAFGTVVQAYLTQDKKNWLGPFAIKKVPAHTEYKSRELQILRIADHPNIVKLQYFFTHLSPQDNKVYQHLAMECLPETLQIEINRYVTNKLEMPLKHIRLYTYQIARGMLYLHGLGVCHRDIKPSNVLVDPETGVLKICDFGSAKKLEHNQPSISYICSRFYRAPELIIGCTQYTTQIDIWGLGCVMGEMLIGKAIFQGQEPLLQLREIAKLLGPPDKRFIFFSNPAYDGPLFSKPLFSGSSQQRFEKYFGHSGPDGIDLLMKILVYEPQQRLSPRRILAHQFFNELRNDDTFLPRGFTEPIKLPNLFDFNDFELQILGEFADKIKPTKVAE
B3: Mrk1 (enzyme, UniProt P50873 1-501)
chain: MTDVLRSLVRKISFNNSDNLQLKHKTSIQSNTALEKKKRKPDTIKKVSDVQVHHTVPNFNNSSEYINDIENLIISKLIDGGKEGIAVDHIEHANISDSKTDGKVANKHENISSKLSKEKVEKMINFDYRYIKTKERTIHKRVYKHDRKTDVDRKNHGGTIDISYPTTEVVGHGSFGVVVTTVIIETNQKVAIKKVLQDRRYKNRELETMKMLCHPNTVGLQYYFYEKDEEDEVYLNLVLDYMPQSLYQRLRHFVNLKMQMPRVEIKFYAYQLFKALNYLHNVPRICHRDIKPQNLLVDPTTFSFKICDFGSAKCLKPDQPNVSYICSRYYRAPELMFGATNYSNQVDVWSSACVIAELLLGKPLFSGESGIDQLVEIIKIMGIPTKDEISGMNPNYEDHVFPNIKPITLAEIFKAEDPDTLDLLTKTLKYHPCERLVPLQCLLSSYFDETKRCDTDTYVKAQNLRIFDFDVETELGHVPLVERPAIEERLKHFVSAPSSSL
B4: Kss1 (enzyme, UniProt P14681 1-368)
chain: MARTITFDIPSQYKLVDLIGEGAYGTVCSAIHKPSGIKVAIKKIQPFSKKLFVTRTIREIKLLRYFHEHENIISILDKVRPVSIDKLNAVYLVEELMETDLQKVINNQNSGFSTLSDDHVQYFTYQILRALKSIHSAQVIHRDIKPSNLLLNSNCDLKVCDFGLARCLASSSDSRETLVGFMTEYVATRWYRAPEIMLTFQEYTTAMDIWSCGCILAEMVSGKPLFPGRDYHHQLWLILEVLGTPSFEDFNQIKSKRAKEYIANLPMRPPLPWETVWSKTDLNPDMIDLLDKMLQFNPDKRISAAEALRHPYLAMYHDPSDEPEYPPLNLDDEFWKLDNKIMRPEEEEEVPIEMLKDMLYDELMKTME
B5: Slt2 (enzyme, UniProt Q00772 1-484)
chain: MADKIERHTFKVFNQDFSVDKRFQLIKEIGHGAYGIVCSARFAEAAEDTTVAIKKVTNVFSKTLLCKRSLRELKLLRHFRGHKNITCLYDMDIVFYPDGSINGLYLYEELMECDMHQIIKSGQPLTDAHYQSFTYQILCGLKYIHSADVLHRDLKPGNLLVNADCQLKICDFGLARGYSENPVENSQFLTEYVATRWYRAPEIMLSYQGYTKAIDVWSAGCILAEFLGGKPIFKGKDYVNQLNQILQVLGTPPDETLRRIGSKNVQDYIHQLGFIPKVPFVNLYPNANSQALDLLEQMLAFDPQKRITVDEALEHPYLSIWHDPADEPVCSEKFEFSFESVNDMEDLKQMVIQEVQDFRLFVRQPLLEEQRQLQLQQQQQQQQQQQQQQQQPSDVDNGNAAASEENYPKQMATSNSVAPQQESFGIHSQNLPRHDADFPPRPQESMMEMRPATGNTADIPPQNDNGTLLDLEKELEFGLDRKYF
B6: Hog1 (enzyme, UniProt P32485 1-435)
chain: MTTNEEFIRTQIFGTVFEITNRYNDLNPVGMGAFGLVCSATDTLTSQPVAIKKIMKPFSTAVLAKRTYRELKLLKHLRHENLICLQDIFLSPLEDIYFVTELQGTDLHRLLQTRPLEKQFVQYFLYQILRGLKYVHSAGVIHRDLKPSNILINENCDLKICDFGLARIQDPQMTGYVSTRYYRAPEIMLTWQKYDVEVDIWSAGCIFAEMIEGKPLFPGKDHVHQFSIITDLLGSPPKDVINTICSENTLKFVTSLPHRDPIPFSERFKTVEPDAVDLLEKMLVFDPKKRITAADALAHPYSAPYHDPTDEPVADAKFDWHFNDADLPVDTWRVMMYSEILDFHKIGGSDGQIDISATFDDQVAAATAAAAQAQAQAQAQVQLNMAAHSHNGAGTTGNDHSDIAGGNKVSDHVAANDTITDYGNQAIQYANEFQQ

molecular target: T1, Tda1-3HA (C-terminally 3xHA-tagged Tda1) (S. cerevisiae); assay: affinity purification with mass spectrometry; Tda1 immunoprecipitated from cells cultured in low-glucose medium; associated proteins separated by SDS-PAGE, digested in gel, nano-LC-MS/MS

| Molecule | binding |
| --- | --- |
| B1 | binds |
| B2 | binds |
| B3 | binds |
| B4 | binds |
| B5 | binds |
| B6 | binds |

molecular target: T1, Tda1-3HA (C-terminally 3xHA-tagged Tda1) (S. cerevisiae); assay: as above; remark: another data set of the same source

| Molecule | binding |
| --- | --- |
| Fus3 (from UniProt P16892 1-353) (enzyme) | binds |
